Measurements reported in PMC6761150.

Experiments:
[1] = target: T1, Stat6 (IL-4-activated, nuclear extract of Trim24-deficient macrophages) (Mus musculus) (UniProt P52633); assay: EMSA; settings: IL-4 20 ng/mL, 1 h, Trim24-deficient macrophages, binding increased vs WT; EMSA buffer, pH and temperature not given; nuclear extracts of peritoneal macrophages, IL-4 20 ng/mL for 1 h, 32P probes; protein in an extract; label: 32P
T1 sequence (looked up, limits assumed): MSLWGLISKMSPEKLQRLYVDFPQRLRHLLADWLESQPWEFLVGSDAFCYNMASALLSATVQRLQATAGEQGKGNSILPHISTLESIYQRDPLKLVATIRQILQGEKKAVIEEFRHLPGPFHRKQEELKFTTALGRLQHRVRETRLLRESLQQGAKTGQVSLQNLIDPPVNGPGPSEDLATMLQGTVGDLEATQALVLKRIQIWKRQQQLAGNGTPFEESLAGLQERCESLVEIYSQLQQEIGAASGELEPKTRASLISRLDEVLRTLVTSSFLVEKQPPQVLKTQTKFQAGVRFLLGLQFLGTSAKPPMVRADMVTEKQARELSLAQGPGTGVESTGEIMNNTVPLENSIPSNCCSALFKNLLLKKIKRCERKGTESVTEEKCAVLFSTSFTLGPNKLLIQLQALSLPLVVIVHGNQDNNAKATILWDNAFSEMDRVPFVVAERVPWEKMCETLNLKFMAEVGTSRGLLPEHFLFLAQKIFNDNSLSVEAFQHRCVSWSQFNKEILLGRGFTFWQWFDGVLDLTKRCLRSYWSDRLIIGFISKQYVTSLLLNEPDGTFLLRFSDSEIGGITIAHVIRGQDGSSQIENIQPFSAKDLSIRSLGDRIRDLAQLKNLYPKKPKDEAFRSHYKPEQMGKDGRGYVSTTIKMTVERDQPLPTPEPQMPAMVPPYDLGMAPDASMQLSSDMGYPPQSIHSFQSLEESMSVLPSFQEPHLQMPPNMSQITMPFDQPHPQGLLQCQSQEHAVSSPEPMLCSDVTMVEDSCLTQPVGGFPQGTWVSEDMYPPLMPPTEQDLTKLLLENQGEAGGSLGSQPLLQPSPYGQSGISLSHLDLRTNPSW

[2] = target: T2, Stat6 (IL-4-activated, nuclear extract of WT peritoneal macrophages) (Mus musculus) (UniProt P52633); assay: EMSA; settings: IL-4 20 ng/mL, 1 h, WT macrophages; EMSA buffer, pH and temperature not given; nuclear extracts of peritoneal macrophages, IL-4 20 ng/mL for 1 h, 32P probes; protein in an extract; label: 32P
T2 sequence (looked up, limits assumed): T1 sequence (looked up, limits assumed)

Question: Does “ATGCTTTCTTATGAACAGGCTG (double strand) [Stat6 WT probe]” bind [1]?
Answer: Result: binds

Question: Does “ATGCTTTCTTATGAACAGGCTG (double strand) [Stat6 WT probe]” bind [2]?
Answer: Result: binds

The exact form of at least one protein or probe is not confirmed. Results from cells or extracts need not show a direct contact. For some assays here: At least one verdict was read from the data and is not stated in words by the source. Where a protein sequence is shown, tags need not be part of it.
